Data reported in patent US12234257B2, “Triterpene saponin derivative and use thereof” (KOREA INSTITUTE OF SCIENCE AND TECHNOLOGY, priority 2020, dated 2025).
For at least one compound, name, drawing or mass did not settle the structure.

Tested on: GFP-RFP-LC3-II puncta in SH-SY5Y cells
Assay: Tandem fluorescent protein quenching assay (RFP-GFP-LC3)
Assay type: cell-based, human
Conditions: transfected SH-SY5Y cells, AKNS-2 10 μM + Wart 50 nM
Procedure: SH-SY5Y cells were cultured in a 24-well plate at a density of 8×10^4 cells/well on a glass cover slip. Transfection was performed in accordance with guidelines of the autophagy tandem RFP-GFP-LC3B kit. After culturing the cells for 24 hours, the cells were treated with an LC3B reagent. After the transfected cells were incubated for 24 hours, 50 nM Wart or 100 nM Baf was administered thereto, and then AKNS-2 (10 μM) was added thereto. The cells were immobilized with 4% paraformaldehyde and permeabilized with 0.1% Triton X100. Nuclei thereof were stained with 4,6-diamidino-2-phenylindole (DAPI, 25 μg/mL). Fluorescent signals were detected using a confocal microscope (Leica, Solms, Germany).

With COC[C@H]1OC(=O)c2coc3c2[C@@]1(C)C1=C(C3=O)[C@@H]2CCC(=O)[C@@]2(C)C[C@H]1OC(C)=O [Wart, Wortmannin] the “AKNS-2-enhanced accumulation of LC3-II puncta with wortmannin” value was “accumulation of green and red LC3-II puncta decreased” and the “AKNS-2-enhanced accumulation of LC3-II puncta with wortmannin” value (listed as wortmannin) was “AKNS-2-induced autophagy is inhibited”.
